Laboratory results from article PMC11490574.

Amino acid sequences for entries named in this document (tags omitted). A change or cut given only in a name is not applied to a line headed by its entry. Residues count along the entry.
UniProt Q9NZI8, 2-156: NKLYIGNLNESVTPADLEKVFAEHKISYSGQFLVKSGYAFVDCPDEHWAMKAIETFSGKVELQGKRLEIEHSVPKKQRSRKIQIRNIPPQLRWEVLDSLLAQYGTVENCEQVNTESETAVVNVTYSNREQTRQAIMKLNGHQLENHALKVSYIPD
UniProt Q9NZI8, 195-343: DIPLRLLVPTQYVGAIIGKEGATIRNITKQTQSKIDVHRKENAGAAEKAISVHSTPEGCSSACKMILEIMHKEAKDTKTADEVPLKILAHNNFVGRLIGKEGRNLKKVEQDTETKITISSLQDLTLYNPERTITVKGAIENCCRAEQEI

Legend:
IGF2BP1 RRM1-2 = IGF2BP1 RRM1-2 (UniProt Q9NZI8); experiment: fluorescence anisotropy; conditions: text: very low affinity, printed '< 100 uM'; FA: 25 mM HEPES 7.3, 150 mM NaCl, […] Tween 20, 10 ug/mL heparin, 2 mM EDTA, 0.5 mM TCEP, 10 nM RNA, 20 C; recombinant protein; protein details: His removed by 3C; label: 5'-fluorescein
IGF2BP1 KH1-2 = IGF2BP1 KH1-2 (UniProt Q9NZI8); experiment: fluorescence anisotropy; conditions: FA: 25 mM HEPES 7.3, 150 mM NaCl, […] Tween 20, 10 ug/mL heparin, 2 mM EDTA, 0.5 mM TCEP, 10 nM RNA, 20 C; recombinant protein; protein details: N-terminal His6 retained; label: 5'-fluorescein
[1] = target: IGF2BP1 linker 1 wild-type (UniProt Q9NZI8); experiment: NMR HSQC titration; conditions: recombinant protein; protein details: His-SUMO removed by SENP
IGF2BP1 linker 1 S181E = target: T1, IGF2BP1 linker 1 S181E (UniProt Q9NZI8); experiment: NMR HSQC titration; conditions: recombinant protein; protein details: His-SUMO removed by SENP
T1 sequence (looked up, limits assumed): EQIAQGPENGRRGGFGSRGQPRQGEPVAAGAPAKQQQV

Sequence | binding result (IGF2BP1 RRM1-2) | half-maximal binding (IGF2BP1 KH1-2) [µM] | binding result [1] | binding result (IGF2BP1 linker 1 S181E)
ACCGGACUGUUACCAACACCCACACCCC [ACTB 28 nt] | binds more weakly | > 15 |  | 
GUGACAUGUC [XBP1 10 nt] |  |  | binds more weakly | binds more weakly
GUGACAUGUCCUCUCUGCUUGGUGUAAACCAUUCUU [XBP1 36 nt] | binds more weakly | > 15 |  | 
UGUGUGUGUGUGUGUGUGUGUGUG [12xUG] |  |  |  | binds more weakly

For at least one entry, the source does not settle the construct or the ends of the probe. For some of these results: A weaker result is weaker than the reference pair of the same experiment. For some of these results: Protein sequences can lack the tags named with them.
